Laboratory results: PubChem BioAssay AID1159584 (Peter MacCallum Cancer Centre, 2016)
Purpose: 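Genes whose loss is lethal only together with E-cadherin loss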 (primary screen). Cell system: human MCF10A breast epithelial cells, parental and CDH1-null. Knock-down reagent: siRNA against human genes. Measurement: 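Cell viability by CellTiter-Glo ATP luminescence, each line scaled to the mean of mock wells across plates, then CDH1-null over parental ratio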. Scale: CDH1-null / parental viability ratio: higher = CDH1-null cells survive relatively better than parental; CDH1-null viability vs mock: higher = more viable CDH1-null cells; parental viability vs mock: higher = more viable parental cells.
Shown is a random part of about 18,000 deposited reagents. Reagent sequences are not shown. The record does not give: the amount of reagent, the time to read-out.

| target | CDH1-null / parental viability ratio | CDH1-null viability vs mock (fraction of mock) | parental viability vs mock (fraction of mock) |
| --- | --- | --- | --- |
| NPC1 (NPC intracellular cholesterol transporter 1) | 1.18 | 0.92 | 0.78 |
| SLIT1 (slit guidance ligand 1) | 1.06 | 0.82 | 0.77 |
| ITM2C (integral membrane protein 2C) | 1.08 | 0.54 | 0.5 |
| ZBTB35 (zinc finger and BTB domain containing 35) | 1.33 | 0.64 | 0.48 |
| NAA11 (N-alpha-acetyltransferase 11, NatA catalytic subunit) | 1.12 | 0.9 | 0.8 |
| GAPDHS (glyceraldehyde-3-phosphate dehydrogenase, spermatogenic) | 1.16 | 1.16 | 1 |
| MRGPRE (MAS related GPR family member E) | 1.44 | 0.98 | 0.68 |
| KLHL35 (kelch like family member 35) | 0.99 | 0.83 | 0.84 |
| CACNA1A (calcium voltage-gated channel subunit alpha1 A) | 1.36 | 1.06 | 0.78 |
| ZSWIM1 (zinc finger SWIM-type containing 1) | 1.12 | 0.64 | 0.57 |
| FLT3 (fms related receptor tyrosine kinase 3) | 1.16 | 0.94 | 0.81 |
| XKR6 (XK related 6) | 0.89 | 0.5 | 0.56 |
| DNAJB14 (DnaJ heat shock protein family (Hsp40) member B14) | 0.89 | 0.82 | 0.92 |
| ALDOA (aldolase, fructose-bisphosphate A) | 0.79 | 0.49 | 0.62 |
| FKBPL (FKBP prolyl isomerase like) | 0.8 | 0.64 | 0.8 |
| ZNF483 (zinc finger protein 483) | 1.05 | 0.44 | 0.42 |
| NUDT16L1 (nudix hydrolase 16 like 1) | 0.75 | 0.42 | 0.56 |
| KIF25 (kinesin family member 25) | 1.38 | 1.1 | 0.8 |
| CKLF (chemokine like factor) | 0.87 | 0.61 | 0.7 |
| DCAF10 (DDB1 and CUL4 associated factor 10) | 0.89 | 0.76 | 0.85 |
| UGT1A3 (UDP glucuronosyltransferase family 1 member A3) | 1.1 | 0.97 | 0.88 |
| PRDM12 (PR/SET domain 12) | 0.96 | 0.71 | 0.74 |
| HPS6 (HPS6 biogenesis of lysosomal organelles complex 2 subunit 3) | 0.85 | 0.76 | 0.89 |
| WAPL (WAPL cohesin release factor) | 0.87 | 0.76 | 0.87 |
| MOK (MOK protein kinase) | 0.91 | 0.82 | 0.9 |
| EEF1B2 (eukaryotic translation elongation factor 1 beta 2) | 1.3 | 1 | 0.77 |
| TRPC3 | 1.1 | 0.89 | 0.81 |
| CYP27C1 (cytochrome P450 family 27 subfamily C member 1) | 0.6 | 0.36 | 0.6 |

A portion of the results above:
| target | CDH1-null / parental viability ratio | CDH1-null viability vs mock (fraction of mock) | parental viability vs mock (fraction of mock) |
| --- | --- | --- | --- |
| MRGPRE (MAS related GPR family member E) | 1.44 | 0.98 | 0.68 |
| KLHL35 (kelch like family member 35) | 0.99 | 0.83 | 0.84 |
| CACNA1A (calcium voltage-gated channel subunit alpha1 A) | 1.36 | 1.06 | 0.78 |
| ZSWIM1 (zinc finger SWIM-type containing 1) | 1.12 | 0.64 | 0.57 |
